Results are given in words; binding and its absence hold for the method and conditions named. In cells and extracts the contact can be indirect. Binding calls can cover weak binding; strength is not graded here.
Legend:
[1] = biological target: PIST (PDZ-domain protein interacting specifically with TC10) (rat (endogenous in rat kidney)); experiment: co-IP; anti-PIST polyclonal antibody, ProFound Mammalian Coimmunoprecipitation kit; total homogenate of kidney cortex from rats fed a control diet (0.6% Pi); Western blot for NaPi-2a
[2] = biological target: PIST (PDZ-domain protein interacting specifically with TC10) (rat (endogenous in rat kidney)); experiment: co-IP; anti-PIST polyclonal antibody, ProFound Mammalian Coimmunoprecipitation kit; non-BBM homogenates of kidneys from rats acutely adapted for 4 hours from low to high (0.1% to 1.2%) or from high to low (1.2% to 0.1%) Pi diet; Western blot for NaPi-2a

B1: NaPi-2a (protein, UniProt Q06496 1-637)
chain: MMSYSERLGGPAVSPLPVRGRHMVHGAAFAYVPSPQVLHRIPGTTTYAISSLSPVALTEHSCPYGEVLECHDPLPAKLAQEEEQKPEPRLSQKLAQVGTKLLKVPLMLGFLYLFVCSLDVLSSAFQLAGGKVAGDIFKDNAILSNPVAGLVVGILVTVLVQSSSTSTSIIVSMVSSGLLEVSSAIPIIMGSNIGTSVTNTIVALMQAGDRTDFRRAFAGATVHDCFNWLSVLVLLPLEAATGYLHHVTGLVVASFNIRGGRDAPDLLKVITEPFTKLIIQLDKSVITSIAVGDESLRNHSLIRIWCQPETKEASTSMSRVEAIGSLANTTMEKCNHIFVDTGLPDLAVGLILLAGSLVVLCTCLILLVKMLNSLLKGQVANVIQKVINTDFPAPFTWVTGYFAMVVGASMTFVVQSSSVFTSAITPLIGLGVISIERAYPLTLGSNIGTTTTAILAALASPREKLSSSFQIALCHFFFNISGILLWYPLPCTRLPIRMAKALGKRTAKYRWFAVLYLLVCFLLLPSLVFGISMAGWQAMVGVGTPFGALLAFVVLVNVLQSRSPGHLPKWLQTWDFLPRWMHSLQPLDGLITRATLCYARPEPRSPQLPPRVFLEELPPATPSPRLALPAHHNATRL
binding [1]: binds weakly | binding [2]: binds
